Test results: article PMC7789814, “The influence of various regions of the FOXP2 sequence on its structure and DNA-binding function”
Results are given in words; binding and its absence hold for the method and conditions named.

Target: T1, FOXP2 FHD (UniProt O15409 504-594)
T1 sequence: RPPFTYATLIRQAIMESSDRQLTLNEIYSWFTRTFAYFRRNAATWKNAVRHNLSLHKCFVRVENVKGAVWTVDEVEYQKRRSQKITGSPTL
Assay: SEC; 20 µM protein incubated at 20°C for at least 30 min; HiLoad 16/60 Superdex 75 prep grade; running buffer 500 mM NaCl, 10 mM HEPES pH 7.5, 2 mM DTT; calibrated with 12-200 kDa markers; oligomer size predicted from the monomeric size; both purified

binding: no binding (tested: 20 µM)
B1: FOXP2 FHD (domain or fragment, UniProt O15409 503-594)
chain: VRPPFTYATLIRQAIMESSDRQLTLNEIYSWFTRTFAYFRRNAATWKNAVRHNLSLHKCFVRVENVKGAVWTVDEVEYQKRRSQKITGSPTL
